For some of these results: At least one result comes from cells or an extract, where the contact may be indirect.

Data set [1] has as its target C-C chemokine receptor type 5 (CCR5) (Homo sapiens) (UniProt P51681). As to the kind of experiment: flow cytometry. The following applies: 2'-F pyrimidines (2'-F-C, 2'-F-U), protein on the cell surface. (In general: In flow cytometry, cells or beads pass a laser one at a time.)
Data set [2] shares this target. As to the kind of experiment: activity in cells. The conditions noted are these: 2'-F pyrimidines in sense strand (transcribed); 400 nM, no transfection agent: TNPO3 knockdown in CEM-NKr-CCR5 but not in CCR5-negative CEM-NKr cells; protein on the cell surface; protein details: CEM-NKr-CCR5 cells; variant of G-3 aptamer.
Setting [3] is: also qRT-PCR binding/internalization, no binding to CCR5-negative U373-Magi, protein details: U373-Magi-CCR5E cells, label: Cy3.

With “GGGAGGACGAUGCGGUCCCGGCUCGUUCGUCUGUGCAGACGACUCGCCCGA [G-4 aptamer]”, the binding result in data set [1] (setting [3]) is “binds”. For “GGGAGGACGAUGCGGCCUUUCGUCUGUUUCUGCGCCAGACGACUCGCCCGA [G-6 aptamer]”, the binding result in data set [1] (setting [3]) is given as “binds”. In the case of “GGGAGGACGAUGCGGUUCGUCAUUUUUCGUCUGGGCAGACGACUCGCCCGA [G-5 aptamer]”, the binding result in data set [1] (setting [3]) is on record as “binds”. Regarding “GGGAGGACGAUGCGGGCCUUCGUUUGUUUCGUCCACAGACGACUCGCCCGAUUUUUUUUCGACAUUGCAGCUCGUGUACCAGGC / GCCUGGUACACGAGCUGCAAUGUCGGC [G-3-TNPO3 27-mer Blunt chimera]”, the “functional effect of the aptamer” value in data set [2] is “active”. For the sequence “GGGAGGACGAUGCGGAUCGUCUAUUAGUCGCUGGCCAGACGACUCGCCCGA [G-1 aptamer]”, in data set [1] (setting [3]), the binding result is on record as “binds”. Same read-out and setting: the value for “GGGAGGACGAUGCGGUCCUUGGCUUUUCGUCUGUGCAGACGACUCGCCCGA [G-2 aptamer]” was “binds”. “GGGAGGACGAUGCGGGCCUUCGUUUGUUUCGUCCACAGACGACUCGCCCGA [G-3 aptamer]”: the binding result in data set [1] (binding to and internalization in PBMC-CD4+ cells, protein details: endogenous on primary PBMC-CD4+ cells, label: Cy3 (binding assays)) is listed as “binds”.

The values above are taken from patent publication US9605266.
